Assay [1] deals with Phosphorylated specificity protein 1 (pSp1) (mouse (endogenous in primary cortical astrocytes)) (UniProt O89090). The experiment in a line: co-IP; endogenous proteins; RIPA lysate (1 mg protein, pre-cleared with Pansorbin) of primary mouse cortical astrocytes, control or treated with 5 mM NH4Cl for 24 h; antibody overnight at 4 °C, protein-G agarose; by the listed controls immunoprecipitation with Sp1 or pSp1 antibody and Western blot for …. (In general: In western blotting, separated proteins are transferred to a membrane and probed.)

Sequences of proteins named here, by UniProt entry; tags and fusion partners are left off.
UniProt O89090: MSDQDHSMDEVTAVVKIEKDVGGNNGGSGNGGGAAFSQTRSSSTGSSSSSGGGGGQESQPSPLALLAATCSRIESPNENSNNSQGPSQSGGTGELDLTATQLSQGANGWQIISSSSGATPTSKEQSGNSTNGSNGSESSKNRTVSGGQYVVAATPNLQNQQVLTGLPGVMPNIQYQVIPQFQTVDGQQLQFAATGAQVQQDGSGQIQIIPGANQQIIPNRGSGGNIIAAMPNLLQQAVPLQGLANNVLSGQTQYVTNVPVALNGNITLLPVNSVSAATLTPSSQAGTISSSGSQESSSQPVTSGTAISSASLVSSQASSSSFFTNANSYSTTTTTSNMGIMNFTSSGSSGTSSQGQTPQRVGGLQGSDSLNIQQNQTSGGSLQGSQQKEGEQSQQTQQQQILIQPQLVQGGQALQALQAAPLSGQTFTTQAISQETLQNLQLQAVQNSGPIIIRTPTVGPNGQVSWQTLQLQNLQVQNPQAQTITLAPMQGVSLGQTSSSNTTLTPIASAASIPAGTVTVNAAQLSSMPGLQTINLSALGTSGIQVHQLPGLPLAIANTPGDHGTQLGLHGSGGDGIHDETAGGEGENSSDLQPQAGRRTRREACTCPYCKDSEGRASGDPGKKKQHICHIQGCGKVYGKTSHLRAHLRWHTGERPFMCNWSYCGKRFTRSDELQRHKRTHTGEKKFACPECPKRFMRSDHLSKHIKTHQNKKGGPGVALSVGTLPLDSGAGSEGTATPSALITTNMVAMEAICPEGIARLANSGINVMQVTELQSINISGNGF

Assay [2] deals with Specificity protein 1 (Sp1) transcription factor (mouse (endogenous in primary cortical astrocytes)) (UniProt O89090). The assay is described as above.

Results are given in words; binding and its absence hold for the method and conditions named. In cells and extracts the contact can be indirect. Some binding calls cover weakened binding; strength is not graded here.

B1: Nuclear factor erythroid-related 2-like 2 (Nrf2) transcription factor (protein, UniProt Q60795 1-597)
chain: MMDLELPPPGLQSQQDMDLIDILWRQDIDLGVSREVFDFSQRQKDYELEKQKKLEKERQEQLQKEQEKAFFAQFQLDEETGEFLPIQPAQHIQTDTSGSASYSQVAHIPKQDALYFEDCMQLLAETFPFVDDHESLALDIPSHAESSVFTAPHQAQSLNSSLEAAMTDLSSIEQDMEQVWQELFSIPELQCLNTENKQLADTTAVPSPEATLTEMDSNYHFYSSISSLEKEVGNCGPHFLHGFEDSFSSILSTDDASQLTSLDSNPTLNTDFGDEFYSAFIAEPSDGGSMPSSAAISQSLSELLDGTIEGCDLSLCKAFNPKHAEGTMEFNDSDSGISLNTSPSRASPEHSVESSIYGDPPPGFSDSEMEELDSAPGSVKQNGPKAQPAHSPGDTVQPLSPAQGHSAPMRESQCENTTKKEVPVSPGHQKAPFTKDKHSSRLEAHLTRDELRAKALHIPFPVEKIINLPVDDFNEMMSKEQFNEAQLALIRDIRRRGKNKVAAQNCRKRKLENIVELEQDLGHLKDEREKLLREKGENDRNLHLLKRRLSTLYLEVFSMLRDEDGKPYSPSEYSLQQTRDGNVFLVPKSKKPDTKKN
On to B1, for which the binding entry in assay [1] and in assay [2] was “binds” in each case.

Source of the values: publication PMC8538223.
